Literature values, collected in patent publication US20240325351A1, “METHOD OF ADMINISTRATION” (Cybin UK Ltd., priority 2023, published 2024).
At least one compound was matched to its structure with a doubt left.

Legend:
healthy volunteers = conditions: psilocybin 25 mg after daily escitalopram for 2 weeks, healthy subjects; cited from earlier work
[1] = system: participants with treatment resistant depression; conditions: oral psilocybin, versus patients withdrawn from SSRI; cited from earlier work

## CN(C)CCc1c[nH]c2cccc(OP(=O)(O)O)c12 [psilocybin, 3-[2-(Dimethylamino)ethyl]-1H-indol-4-yl dihydrogen phosphate]
Healthy volunteers
  Effect of escitalopram pre-treatment on the response to psilocybin: not found to reduce the positive mood or mind-altering effects
[1]
  Treatment outcomes with concomitant SSRIs: comparable treatment outcomes to patients withdrawn from their SSRI therapy
